The source gives many values for each of these; only a part stands here.
System: human colon carcinoma cell strain WiDr
Assay: Microarray analysis (2), reviewed conditions, intron expression, Table 3
Type: cell-based
Description: WiDr cells were first suspended in RPMI1640 medium (containing 10% FBS, penicillin, and streptomycin) and seeded in a 10 cm dish (2×10^6 cells/dish). After an overnight culture in an incubator with 5% carbon dioxide gas at 37° C., the medium was changed with medium containing 14 nM of (8E,12E,14E)-7-((4-cycloheptylpiperazin-1-yl)carbonyl)oxy-3,6,16,21-tetrahydroxy-6,10,12,16,20-pentamethyl-18,19-epoxytricosa-8,12,14-trien-11-olide or containing vehicle alone. After cultured for additional six hours, TRI reagent (SIGMA) were added to the cells and the cells were harvested. RNA was purified in accordance with the protocol of TRI reagent, followed by further purification with RNeasy (QIAGEN). Absorbance at 260 nm was measured to quantify an amount of RNA. This experiment was repeated three times and RNA samples (n=3) were prepared.
Ribosomal RNA was removed from 1 μg of each total RNA of control cells (n=3) and cells with the treatment (n=3) by using RiboMinus Human/Mouse Transcriptome Isolation Kit (Invitrogen). Single stranded cDNA synthesis, double stranded cDNA synthesis, cRNA synthesis, second single stranded cDNA synthesis, cDNA fragmentation, and cDNA labeling in order were carried out for the total RNA from which ribosomal RNA was removed, by using GeneChip Whole Transcript Sense Target Labeling and Control Reagents (Affymetrix) to make a cDNA probe. The cDNA probe was used for hybridization with Human Exon 1.0 ST Array (Affymetrix). The array was washed and stained, and luminescence intensity was measured by a scanner.
Analysis conditions were reviewed in the data used in Example 3. Genes containing increased introns upon treatment with (8E,12E,14E)-7-((4-cycloheptylpiperazin-1-yl)carbonyl)oxy-3,6,16,21-tetrahydroxy-6,10,12,16,20-pentamethyl-18,19-epoxytricosa-8,12,14-trien-11-olide were identified.
In order to consider the analysis conditions, variations in the data from the samples with identical conditions were studied. […] It turned out that, by analyzing under conditions where the expression level was more than 100 and change in the expression level was more than five times, a probe set with increased expression can be extracted.
Probe sets showing that the normalized change in the level expression of the probe set in the group with the treatment was more than 5 times; the expression level of the probe set and the gene in the group with the treatment were more than 100; and probe set annotation was “extended, full, free”, were picked out. Welch's t-test was conducted with the probe sets extracted for the treated group and the control group to determine a p and q value. A gene containing the probe sets with the q value of less than 5% was determined as a candidate gene with increased expression level of the intron regions (Table 3).
In Table 3, for each gene evaluated, gene name (Gene Name), abbreviated name (Gene Symbol), accession number (Accession), alias name (Synonym), transcription cluster number in Human Exon 1.0 ST Array (Human Exon 1.0 ST Array Transcript Cluster ID), chromosome number (Chromosome), type of strand (Strand), start region (Start), stop region (Stop), and change in expression level (Fold Change) were respectively shown.

CCC(O)C(C)C1OC1CC(C)(O)/C=C/C=C(\C)C1OC(=O)CC(O)CCC(C)(O)C(OC(=O)N2CCN(C3CCCCCC3)CC2)/C=C/C1C (stereo not shown) [E7107, (8E,12E,14E)-7-((4-cycloheptylpiperazin-1-yl)carbonyl)oxy-3,6,16,21-tetrahydroxy-6,10,12,16,20-pentamethyl-18,19-epoxytricosa-8,12,14-trien-11-olide]
Fold Change (Gene Symbol ADAM9, Transcript Cluster ID 3095002): 5.67 | Fold Change (Gene Symbol ADPRHL2, Transcript Cluster ID 2330253): 5.73 | Fold Change (Gene Symbol AFTPH, Transcript Cluster ID 2485433): 5.82 | Fold Change (Gene Symbol AHCTF1, Transcript Cluster ID 2465324): 5.92 | Fold Change (Gene Symbol AKAP8L, Transcript Cluster ID 3853345): 5.87 | Fold Change (Gene Symbol ANKRD10, Transcript Cluster ID 3525679): 5.83 | Fold Change (Gene Symbol ANP32B, Transcript Cluster ID 3181417): 5.66 | Fold Change (Gene Symbol ARF1, Transcript Cluster ID 2383726): 5.58 | Fold Change (Gene Symbol ARHGEF7, Transcript Cluster ID 3501661): 5.61 | Fold Change (Gene Symbol ARIH2, Transcript Cluster ID 2621827): 5.91 | Fold Change (Gene Symbol AURKB, Transcript Cluster ID 3744263): 5.92 | Fold Change (Gene Symbol BCL2L1, Transcript Cluster ID 3902489): 5.85 | Fold Change (Gene Symbol BLCAP, Transcript Cluster ID 3904928): 5.57 | Fold Change (Gene Symbol BRAF, Transcript Cluster ID 3076340): 5.68 | Fold Change (Gene Symbol C1orf164, Transcript Cluster ID 2333907): 5.72 | Fold Change (Gene Symbol C4orf14, Transcript Cluster ID 2770427): 5.72 | Fold Change (Gene Symbol C11orf68, Transcript Cluster ID 3378007): 5.91 | Fold Change (Gene Symbol C14orf151, Transcript Cluster ID 3554282): 5.67 | Fold Change (Gene Symbol C17orf70, Transcript Cluster ID 3773980): 5.87 | Fold Change (Gene Symbol CACYBP, Transcript Cluster ID 2368198): 5.90 | Fold Change (Gene Symbol CCNH, Transcript Cluster ID 2865860): 5.74 | Fold Change (Gene Symbol CDCA3, Transcript Cluster ID 3442322): 5.93 | Fold Change (Gene Symbol CLK1, Transcript Cluster ID 2594497): 5.88 | Fold Change (Gene Symbol CLTC, Transcript Cluster ID 3729172): 5.76 | Fold Change (Gene Symbol CPSF4, Transcript Cluster ID 3014764): 5.66 | Fold Change (Gene Symbol CSNK1E // KIAA1660, Transcript Cluster ID 3960478): 5.51 | Fold Change (Gene Symbol CSTF1, Transcript Cluster ID 3890154): 5.77 | Fold Change (Gene Symbol CTNNAL1, Transcript Cluster ID 3219621): 5.76 | Fold Change (Gene Symbol CUL4A, Transcript Cluster ID 3502497): 5.85 | Fold Change (Gene Symbol CYR61, Transcript Cluster ID 2344888): 5.52 | Fold Change (Gene Symbol DCTN4, Transcript Cluster ID 2881554): 5.54 | Fold Change (Gene Symbol DDX39, Transcript Cluster ID 3852691): 5.84 | Fold Change (Gene Symbol DPH2 // B4GALT2 // ATP6V0B, Transcript Cluster ID 2333635): 5.72 | Fold Change (Gene Symbol ELP4, Transcript Cluster ID 3325307): 5.48 | Fold Change (Gene Symbol EMG1, Transcript Cluster ID 3403140): 5.65 | Fold Change (Gene Symbol FLJ20366, Transcript Cluster ID 3148871): 5.48 | Fold Change (Gene Symbol G3BP2 // NARG2 // RORA, Transcript Cluster ID 2773756): 5.54 | Fold Change (Gene Symbol GATA6, Transcript Cluster ID 3781245): 5.67 | Fold Change (Gene Symbol GLS, Transcript Cluster ID 2520291): 5.65 | Fold Change (Gene Symbol GPIAP1, Transcript Cluster ID 3326183): 5.92 | Fold Change (Gene Symbol GRLF1, Transcript Cluster ID 3837001): 5.92 | Fold Change (Gene Symbol GSR, Transcript Cluster ID 3130161): 5.49 | Fold Change (Gene Symbol GTF3C5, Transcript Cluster ID 3192653): 5.81 | Fold Change (Gene Symbol HIPK1, Transcript Cluster ID 2352758): 5.77 | Fold Change (Gene Symbol HNRPH1, Transcript Cluster ID 2890148): 5.57 | Fold Change (Gene Symbol HNRPH3, Transcript Cluster ID 3249738): 5.68 | Fold Change (Gene Symbol HNRPU, Transcript Cluster ID 2464499): 5.85 | Fold Change (Gene Symbol IFRD2, Transcript Cluster ID 2675088): 5.71 | Fold Change (Gene Symbol IK, Transcript Cluster ID 2831932): 5.66 | Fold Change (Gene Symbol KCTD5, Transcript Cluster ID 3645204): 5.50 | Fold Change (Gene Symbol KLF5, Transcript Cluster ID 3493543): 5.70 | Fold Change (Gene Symbol LGALS8, Transcript Cluster ID 2386867): 5.84 | Fold Change (Gene Symbol LRRC1 // C20orf44, Transcript Cluster ID 2910680): 5.54 | Fold Change (Gene Symbol LSG1, Transcript Cluster ID 2711818): 5.69 | Fold Change (Gene Symbol MCM3, Transcript Cluster ID 2957126): 5.50 | Fold Change (Gene Symbol MLPH, Transcript Cluster ID 2534252): 5.70 | Fold Change (Gene Symbol MRPS11, Transcript Cluster ID 3607183): 5.80 | Fold Change (Gene Symbol MYD88, Transcript Cluster ID 2617563): 5.71 | Fold Change (Gene Symbol NAT5, Transcript Cluster ID 3878934): 5.65 | Fold Change (Gene Symbol NDUFB11, Transcript Cluster ID 4007009): 5.86 | Fold Change (Gene Symbol NFAT5, Transcript Cluster ID 3666779): 5.80 | Fold Change (Gene Symbol NFKBIA, Transcript Cluster ID 3561039): 5.90 | Fold Change (Gene Symbol NHN1, Transcript Cluster ID 3673515): 5.49 | Fold Change (Gene Symbol NME1-NME2 // NME1, Transcript Cluster ID 3726934): 5.52 | Fold Change (Gene Symbol NOLC1, Transcript Cluster ID 3261492): 5.73 | Fold Change (Gene Symbol NR2F2, Transcript Cluster ID 3610110): 5.79 | Fold Change (Gene Symbol NRBP1, Transcript Cluster ID 2474527): 5.77 | Fold Change (Gene Symbol NUDCD1, Transcript Cluster ID 3148796): 5.68 | Fold Change (Gene Symbol PAFAH1B2, Transcript Cluster ID 3350749): 5.72 | Fold Change (Gene Symbol PARD3, Transcript Cluster ID 3284596): 5.49 | Fold Change (Gene Symbol PBEF1 // RP11-92J19.4, Transcript Cluster ID 3066818): 5.77 | Fold Change (Gene Symbol PDCD2L, Transcript Cluster ID 3829751): 5.57 | Fold Change (Gene Symbol PITPNB, Transcript Cluster ID 3956290): 5.87 | Fold Change (Gene Symbol PLAGL2, Transcript Cluster ID 3902682): 5.63 | Fold Change (Gene Symbol POLR1A, Transcript Cluster ID 2562605): 5.81 | Fold Change (Gene Symbol PPAT, Transcript Cluster ID 2770242): 5.65 | Fold Change (Gene Symbol PPIL4 // SLC25A24, Transcript Cluster ID 2978876): 5.54 | Fold Change (Gene Symbol PPTC7, Transcript Cluster ID 3471300): 5.77 | Fold Change (Gene Symbol PREI3 // HSPE1, Transcript Cluster ID 2521500): 5.67 | Fold Change (Gene Symbol PSCD2, Transcript Cluster ID 3837836): 5.69 | Fold Change (Gene Symbol PSMC2, Transcript Cluster ID 3017206): 5.65 | Fold Change (Gene Symbol PSMD2, Transcript Cluster ID 2655650): 5.89 | Fold Change (Gene Symbol PTMA // FAM22G, Transcript Cluster ID 2532021): 5.52 | Fold Change (Gene Symbol RICS, Transcript Cluster ID 3397877): 5.68 | Fold Change (Gene Symbol RNF34, Transcript Cluster ID 3434823): 5.87 | Fold Change (Gene Symbol RNF43, Transcript Cluster ID 3764399): 5.56 | Fold Change (Gene Symbol RNF139, Transcript Cluster ID 3114618): 5.59 | Fold Change (Gene Symbol RP2, Transcript Cluster ID 3975869): 5.85 | Fold Change (Gene Symbol SEC24C, Transcript Cluster ID 3251848): 5.62 | Fold Change (Gene Symbol SECISBP2, Transcript Cluster ID 3178611): 5.74 | Fold Change (Gene Symbol SEMA4B, Transcript Cluster ID 3607927): 5.80 | Fold Change (Gene Symbol SF3B3, Transcript Cluster ID 3667281): 5.78 | Fold Change (Gene Symbol SH3RF1, Transcript Cluster ID 2793137): 5.78 | Fold Change (Gene Symbol SLBP, Transcript Cluster ID 2757319): 5.85 | Fold Change (Gene Symbol SLC7A6, Transcript Cluster ID 3666146): 5.86 | Fold Change (Gene Symbol SLC25A3, Transcript Cluster ID 3427820): 5.50 | Fold Change (Gene Symbol SLC39A14, Transcript Cluster ID 3089360): 5.86 | Fold Change (Gene Symbol SLK, Transcript Cluster ID 3262433): 5.49 | Fold Change (Gene Symbol SMC1A, Transcript Cluster ID 4009238): 5.53 | Fold Change (Gene Symbol SMCR7L, Transcript Cluster ID 3945877): 5.88 | Fold Change (Gene Symbol SMG1, Transcript Cluster ID 3683050): 5.86 | Fold Change (Gene Symbol SRRM1 // C1orf130, Transcript Cluster ID 2325526): 5.49 | Fold Change (Gene Symbol ST3GAL4, Transcript Cluster ID 3355145): 5.71
